PubChem BioAssay AID686937 – Drosophila RNAi Screening Center – 2013

Aim: 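Genes in the fly needed for secretion of protein constitutively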 (primary screen)
Cells: Drosophila S2 cells expressing secreted horseradish peroxidase
Knock-down reagent: long dsRNA against Drosophila genes
Duration: about 5.5 days (5 days dsRNA, then 12 h reporter induction)
Challenge: reporter expression induced after 5 days of dsRNA, read 12 h later; inducer not stated
Read-out: 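After 5 days of dsRNA and 12 h of reporter induction, medium peroxidase read by chemiluminescence and scored as per-plate z-score; higher values mean more reporter released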
Scale: z-score: higher = more reporter secreted into medium
The deposit covers about 23,000 reagents; below is an unselected part of those that have a named target and a result. 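Reduced-secretion tags in replicate 1 do not always agree with the z-scores; no criterion for assigning the tags was given.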 A plus sign joins genes that one reagent is predicted to hit. Not given: the amount of reagent.

target | DRSC id | z-score, replicate 1 | z-score, replicate 2 | z-score, replicate 3 | z-score, replicate 4 | phenotype, replicate 1
peg | DRSC15216 | 0.01 | -0.04 | – | – | –
Syx16 | DRSC20507 | 0.15 | 0.11 | – | – | –
CG32371 | DRSC22209 | -0.07 | 0.13 | – | – | –
Pka-C3 | DRSC09402 | 0.46 | 0.28 | – | – | –
Pka-C3 | DRSC11254 | 0.18 | -0.39 | – | – | –
Nup43 | DRSC16279 | 0.17 | 0.06 | – | – | –
CG9270 | DRSC03182 | 0.42 | 0.35 | – | – | –
CG5861 | DRSC02907 | -0.1 | 0.41 | – | – | –
CG31827 + CG18478 | DRSC01958 | 0.11 | 0.25 | – | – | –
CG11085 | DRSC19374 | 0.35 | 0.51 | – | – | –
CG11085 | DRSC22832 | -0.38 | -0.21 | – | – | –
sicily | DRSC19704 | 0.39 | 0.08 | – | – | –
CG31272 | DRSC16058 | 0.3 | 0.72 | – | – | –
Hira | DRSC18672 | -0.07 | 0.22 | – | – | –
CG2258 | DRSC18222 | 0.43 | 0.44 | – | – | –
Vps51 | DRSC06519 | 0.04 | 0.3 | – | – | –
Menl-2 + Menl-1 | DRSC07469 | 0.39 | 0.5 | – | – | –
Menl-2 + Menl-1 | DRSC07470 | 0.31 | 0.36 | – | – | –
mRpL32 | DRSC14479 | -0.48 | -1.34 | – | – | –
CG31139 | DRSC21393 | -0.38 | -0.45 | – | – | –
Oatp26F | DRSC02149 | 0.31 | 0.3 | – | – | –
Oatp26F | DRSC02272 | 0.46 | 0.34 | – | – | –
Oatp26F | DRSC02695 | 0.31 | 0.38 | – | – | –
Bdbt | DRSC15218 | 0.04 | 0.09 | – | – | –
CG17477 | DRSC15239 | 0.11 | 0.32 | – | – | –
Coq7 + shf | DRSC18448 | 0.31 | 0.64 | – | – | –
RhoGAP18B | DRSC19763 | 0.14 | 0.28 | – | – | –
RhoGAP18B | DRSC20047 | 0.43 | 0.28 | – | – | –
RhoGAP18B | DRSC20048 | -0.06 | 0.18 | – | – | –
RhoGAP18B | DRSC20049 | -0.94 | -0.13 | – | – | –
CG31248 | DRSC22722 | 0.17 | 0.11 | – | – | –
CG13438 | DRSC06398 | 0.42 | 0.34 | – | – | –
Claspin | DRSC08308 | 0.76 | 0.6 | – | – | –
Naa35 | DRSC04447 | 0.16 | 0.18 | – | – | –
CG43092 | DRSC13572 | 0.39 | 0.38 | – | – | –
CG33500 | DRSC09115 | -2.49 | -2.02 | – | – | reduced secretion
Srlp | DRSC15890 | -3.78 | -3.67 | – | – | reduced secretion
D12 | DRSC03311 | 0.35 | 0.32 | – | – | –
CG8478 | DRSC16427 | 0.36 | 0.53 | – | – | –
Fbxo42 | DRSC04529 | -0.35 | -0.02 | – | – | –
Spx | DRSC18720 | -3.45 | -2.37 | – | – | reduced secretion
CR18217 | DRSC21506 | 0.91 | 0.01 | – | – | –
CG13056 | DRSC09937 | 0.15 | 0.02 | – | – | –
bai | DRSC14388 | -0.4 | -0.05 | – | – | –
CG9588 | DRSC16504 | 0.41 | 0.55 | – | – | –
osk | DRSC17023 | 0.23 | 0.28 | – | – | –
CG11267 | DRSC09833 | -0.12 | 0.11 | – | – | –
CG2964 | DRSC00554 | -7.28 | 0.27 | – | – | reduced secretion
CG31278 | DRSC16051 | 0.14 | 0.22 | – | – | –
CG7768 | DRSC10914 | 0.3 | 0.28 | – | – | –
CG13309 | DRSC09980 | 0.27 | 0.29 | – | – | –
Hexo2 | DRSC18671 | 0.38 | 0.45 | – | – | –
CG42784 | DRSC02534 | 0.07 | 0.18 | – | – | –
CG42784 | DRSC02535 | -0.55 | -1.34 | – | – | –
CG42784 | DRSC22272 | 0.37 | 1.08 | – | – | –
CG42784 | DRSC22804 | -0.22 | -0.22 | – | – | –
CG12768 | DRSC11680 | 0.2 | -0.22 | – | – | –
Jhbp2 | DRSC12292 | -0.63 | 0.21 | – | – | –
PCNA2 | DRSC02030 | 0.04 | 0.3 | – | – | –
CG30379 | DRSC05070 | -0.38 | – | – | – | –
CG2915 | DRSC06842 | 0.49 | 0.48 | – | – | –
CG43103 | DRSC05643 | 0.44 | 0.48 | – | – | –
Vmat | DRSC06961 | 0.27 | 0.29 | – | – | –
Vmat | DRSC06962 | 0.21 | 0.39 | – | – | –
Vmat | DRSC22223 | -0.37 | -0.32 | – | – | –
CG32264 | DRSC08061 | -1.59 | -0.96 | – | – | reduced secretion
CG32264 | DRSC08167 | 0.4 | 0.32 | – | – | –
CG32264 | DRSC08169 | 0.34 | 0.29 | – | – | –
CG32264 | DRSC08285 | -0.64 | 0.31 | 0.33 | -0.18 | –
CG32264 | DRSC08437 | -1.4 | -1.46 | – | – | –
Idgf6 | DRSC07360 | 0.33 | 0.45 | – | – | –
CG42720 (retired record) | DRSC22549 | -0.18 | -0.02 | – | – | –
C1GalTA | DRSC03246 | 0.56 | 0.3 | – | – | –
Pka-C2 | DRSC16790 | -0.18 | -0.61 | – | – | –
fz2 | DRSC09595 | 0.31 | -0.52 | – | – | –
fz2 | DRSC10087 | 0.35 | 0.29 | 0.27 | 0.15 | –
fz2 | DRSC11349 | 0.46 | 0.3 | – | – | –
RPA1 | DRSC16830 | 0.18 | -0.03 | – | – | –
Shmt | DRSC18264 | 0.24 | 0.16 | – | – | –
Pph13 | DRSC00775 | 0.33 | 0.46 | – | – | –
CG34309 | DRSC14838 | 0.11 | 0.2 | – | – | –
pnut | DRSC07666 | 0.05 | 0.13 | – | – | –
Prosalpha6T | DRSC02873 | -0.02 | 0.22 | – | – | –
CG30427 | DRSC04014 | 0.17 | – | – | – | –
CG30427 | DRSC04311 | 0.38 | 0.32 | – | – | –
CG30427 | DRSC04323 | 0.19 | 0.32 | – | – | –
CG17267 | DRSC15207 | 0.09 | 0.1 | – | – | –
Tsp2A | DRSC18584 | 0.19 | 0.17 | – | – | –
sloth2 + sloth1 | DRSC17922 | 0.09 | 0.08 | – | – | –
sloth2 + sloth1 | DRSC17923 | 0.3 | 0.44 | – | – | –
CG31922 | DRSC21703 | -0.07 | 1.1 | – | – | –
xit | DRSC18364 | 0.54 | 0.59 | – | – | –
CG9411 | DRSC20184 | 0.39 | 0.47 | – | – | –
CG12316 | DRSC09879 | 0.36 | 0.32 | – | – | –
CG42586 + CG31775 | DRSC01413 | -3.3 | -1.52 | 0.31 | 0.11 | reduced secretion
CG34435 | DRSC18086 | 0.56 | 0.63 | – | – | –
Eip63F-1 | DRSC08072 | -0.25 | 0.31 | – | – | –
Eip63F-1 | DRSC08659 | 0.66 | 0.32 | – | – | –
CG12541 | DRSC17483 | 0.06 | 0.57 | – | – | –
CG12541 | DRSC17839 | 0.56 | 0.55 | – | – | –
Osi4 | DRSC12134 | 0.18 | 0.24 | – | – | –
tex | DRSC16517 | -0.39 | 0.13 | – | – | –
xmas-1 (retired record) | DRSC20386 | 0.04 | 0.32 | – | – | –
CG14739 | DRSC14959 | 0.46 | 0.59 | – | – | –

Records listed so far whose target name begins with B or b (2):
target | DRSC id | z-score, replicate 1 | z-score, replicate 2 | z-score, replicate 3 | z-score, replicate 4 | phenotype, replicate 1
Bdbt | DRSC15218 | 0.04 | 0.09 | – | – | –
bai | DRSC14388 | -0.4 | -0.05 | – | – | –
